Assay results from paper PMC7819943, “Rice protein-binding microarrays: a tool to detect cis-acting elements near promoter regions in rice”.
Some of the results follow.

By UniProt entry, the sequences of proteins in these tests, tags left out.
UniProt Q0JBA9, entry or part of it: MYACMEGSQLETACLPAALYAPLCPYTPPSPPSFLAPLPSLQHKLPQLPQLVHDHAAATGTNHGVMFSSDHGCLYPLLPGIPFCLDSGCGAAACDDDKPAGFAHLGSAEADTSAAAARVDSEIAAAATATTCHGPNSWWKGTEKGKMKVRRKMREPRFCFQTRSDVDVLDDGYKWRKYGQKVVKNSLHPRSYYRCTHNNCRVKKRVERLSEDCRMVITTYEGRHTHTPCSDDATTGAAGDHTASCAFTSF

target: OsWRKY34 (Oryza sativa, UniProt Q0JBA9 1-250); assay: protein-binding microarray (RPBM); PBS, 2% BSA, 51.3 ng/ul salmon testes DNA, 50 uM zinc acetate, 200 nM TF, 25 C, 1 h; high values mean tight binding; conditions: protein: recombinant; tags: N-terminal polyhistidine and DsRed monomer fusion (pET32a); label: CyDye5-dUTP incorporated in the synthesized complementary strand; 3' TTTTT single-stranded linker to array surface; dsDNA, one strand shown
How it was run: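 A custom Agilent array was converted to double-stranded form by primer extension with Cy5-dUTP and blocked with 2% BSA. Protein at 200 nM in PBS with 2% BSA, salmon testes DNA and 50 µM zinc acetate was applied for 1 h at 25 °C, followed by washing. The proteins were polyhistidine–DsRed N-terminal fusions of transcription factors, expressed in E. coli BL21-CodonPlus and Ni–NTA-purified. The binding signal is per-feature fluorescence intensity (arbitrary units) from an Axon 4000B scanner.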

Sequence	binding signal
CCTCTCTGCCGCCCTATTCCATGCATCGAGCGTTAAACCGCGGAGTCACCTAGTGCAG	12400 fluorescence intensity (a.u.)
GGAATTCACAACCACACCCTTCACACATTTCTCCTCCGCCCGGAGTCACCTAGTGCAG	8030 fluorescence intensity (a.u.)
TGCGTCTTGTATGAACCCTAACTCTTTTTCTCTTCTTTTTCGGAGTCACCTAGTGCAG	9760 fluorescence intensity (a.u.)
CTTACTGTTACTACGGTATCTCTAATTTCTTCCCTTGCAGCGGAGTCACCTAGTGCAG	8420 fluorescence intensity (a.u.)
TCTCCAACAGCTCCTACATCGTCACCCGCCTAATAACTGACGGAGTCACCTAGTGCAG	10200 fluorescence intensity (a.u.)
TTGCACTATATCGCACCCACCTGCCAAGCTGTTGTACCGTCGGAGTCACCTAGTGCAG	8510 fluorescence intensity (a.u.)
AGTTGGTTGGTAATTGTGTTCCTCTTTTCTTTTTTCTTTTCGGAGTCACCTAGTGCAG	9400 fluorescence intensity (a.u.)
TTCTAAACTTCCATACACAATTTTTCAGTCACATCGTTTCCGGAGTCACCTAGTGCAG	8580 fluorescence intensity (a.u.)
TGACCTCCATTTTTTTTTCCTTTTCACTTCTCTTGTTCTTCGGAGTCACCTAGTGCAG	8560 fluorescence intensity (a.u.)
GACTCATTTATTATTTTCATGGTTTATCATTCGTAGAGTACGGAGTCACCTAGTGCAG	8930 fluorescence intensity (a.u.)
TTGTAAGTATTTTACGCTTTATTTACGTTTGGAACTGTATCGGAGTCACCTAGTGCAG	9990 fluorescence intensity (a.u.)
CTTCCCTGCCTGTTTGTCATAGCCATGGCCGCTCTGCAGACGGAGTCACCTAGTGCAG	11400 fluorescence intensity (a.u.)
CCTCGCTCCGTCGCTCACAACCCGTCTCCTGCTCGATCCGCGGAGTCACCTAGTGCAG	9140 fluorescence intensity (a.u.)
CTGTGCTTCTCCTCCGCGCTCCACATCACATCGCATCACCCGGAGTCACCTAGTGCAG	10500 fluorescence intensity (a.u.)
TCTTTCAGCCATGTTGATGCGCACTCAGATAGATCTATCTCGGAGTCACCTAGTGCAG	8090 fluorescence intensity (a.u.)
TCCGCCGCGAGCGGCGCTTCCTAGTTCCTACCTCCGTTTCCGGAGTCACCTAGTGCAG	11600 fluorescence intensity (a.u.)
CATTATTGCCCTTGACAGTTTTCTTATTTACCTGCCATACCGGAGTCACCTAGTGCAG	12000 fluorescence intensity (a.u.)
CCTCCACTTGGCCCGCCATCTCGCCGTCCCTTCTCACGAGCGGAGTCACCTAGTGCAG	10300 fluorescence intensity (a.u.)
TGTGTCTGTGTGTGTGTTTTTTTTCCCGATCAAAGATCGGCGGAGTCACCTAGTGCAG	9380 fluorescence intensity (a.u.)
TACCACAACAAACTGCTACCACTTCACCATTCATAATTCGCGGAGTCACCTAGTGCAG	11300 fluorescence intensity (a.u.)
GCAGCCATGATTTTCTGCGTCTAACTTTGACCGTCTGTCTCGGAGTCACCTAGTGCAG	10200 fluorescence intensity (a.u.)

Sequence	binding signal
TGGTCGAAAAGTCAACGGCGTCATACATTAAAATACGGAGCGGAGTCACCTAGTGCAG	12600 fluorescence intensity (a.u.)
TTGTTTCCACGCAATTCTCAATAAAGCACCAATGCACCATCGGAGTCACCTAGTGCAG	8130 fluorescence intensity (a.u.)
GATCCCGCAAACCTCGCGCCTTTTCCGCGATTCAGCCACGCGGAGTCACCTAGTGCAG	9640 fluorescence intensity (a.u.)
AGTAGTTTTTTAATATCACCTTAATTTACTTCATACACATCGGAGTCACCTAGTGCAG	8470 fluorescence intensity (a.u.)
TGCCTGCATCCTTTCTGCTCTGTCCCTAAAAGTTTCACCTCGGAGTCACCTAGTGCAG	8330 fluorescence intensity (a.u.)
GACTTTTTAACACATGTTTGACCGTTCGTCTTATTCAAAACGGAGTCACCTAGTGCAG	10900 fluorescence intensity (a.u.)
ACCACCCGCCACGTCTCGCCCACGCGCGCGCGCGCACCGCCGGAGTCACCTAGTGCAG	12300 fluorescence intensity (a.u.)
TGCCCGTAGCTTATATATGATTCATCCATTATCTAGAAAACGGAGTCACCTAGTGCAG	8390 fluorescence intensity (a.u.)
GGCCGCGCTAGCCCATCCCCATGCCGAACCAGCTAGCCCACGGAGTCACCTAGTGCAG	8050 fluorescence intensity (a.u.)
CTATCTTCCGTTCCACCCGCTCCCGTTGAGCTCAATTATCCGGAGTCACCTAGTGCAG	10500 fluorescence intensity (a.u.)
CAAATAACCGGTCAGCCCATCACTCCGTCACAGTTCACAGCGGAGTCACCTAGTGCAG	8070 fluorescence intensity (a.u.)
AAATCCGGCGCCAAATTTACCCGCGCCTTCACTCGTGTGACGGAGTCACCTAGTGCAG	8660 fluorescence intensity (a.u.)
AACAAGGCATCCGCACCCGCATTAAAAACGCTATTTCTTTCGGAGTCACCTAGTGCAG	9670 fluorescence intensity (a.u.)
GAAGGTTATAACCTCTGCACTCACACCATATGCATGTCCTCGGAGTCACCTAGTGCAG	9110 fluorescence intensity (a.u.)
ACATGTAGCACGAGCCGTTCCTTGTGCCACCCAGACGAATCGGAGTCACCTAGTGCAG	8090 fluorescence intensity (a.u.)
GGGGAAACTCTTTTATTGTCTTAAGGGATGTCCTCTCAATCGGAGTCACCTAGTGCAG	11200 fluorescence intensity (a.u.)
TCGCCCACCGCCTGAGCCGATCCATCTCGCGCGATCCCGCCGGAGTCACCTAGTGCAG	9260 fluorescence intensity (a.u.)
TAGACTTTTTCTCACATGTTTGACCATTCGTCTTATTCAACGGAGTCACCTAGTGCAG	11700 fluorescence intensity (a.u.)
CTTTGTCACCATTTGCCAATAAATGTTGTTACACTTGCCACGGAGTCACCTAGTGCAG	8070 fluorescence intensity (a.u.)
TTTCCGACCTTGCAGTATTGATAATCATTCATTTCACCTTCGGAGTCACCTAGTGCAG	8540 fluorescence intensity (a.u.)
TTATACTCACTTGTTTTTCACACGCGCATATTTTTTAAATCGGAGTCACCTAGTGCAG	8030 fluorescence intensity (a.u.)

Sequence	binding signal
ACCGAGGTTGACCAGGCCCCACATGTAAGCGAGAGGAGCTCGGAGTCACCTAGTGCAG	8980 fluorescence intensity (a.u.)
TTTCTGTTCGCACACCAGCATGCATGCATGCGTTGCACTCCGGAGTCACCTAGTGCAG	9150 fluorescence intensity (a.u.)
TGTATTTTTCATGTAGTAAACCACATCTCCTACAGTTCTACGGAGTCACCTAGTGCAG	8380 fluorescence intensity (a.u.)
GACCTCTCCATCTCGCTCTCTGCTCGATTCCGAGCGGCTCCGGAGTCACCTAGTGCAG	8220 fluorescence intensity (a.u.)
AGAGCTTGAGGTGGTTGGATTTTTCTCGTACTTTTCATGTCGGAGTCACCTAGTGCAG	11700 fluorescence intensity (a.u.)
TGACCAACATCAAGTAATATAGCCATGATATATTTTCTACCGGAGTCACCTAGTGCAG	8130 fluorescence intensity (a.u.)
ATAACTTGCACATCCTTTTTGCTCTCTTATGATTTGTTATCGGAGTCACCTAGTGCAG	9640 fluorescence intensity (a.u.)
CCATTAACTTTTTCCCACCTACCTTCACTATTCATCCAATCGGAGTCACCTAGTGCAG	10300 fluorescence intensity (a.u.)
TTGCTTCATCGATTGGGAGGTTTCTTGCTGTTCTTGGGTTCGGAGTCACCTAGTGCAG	10100 fluorescence intensity (a.u.)
CTAGTAGTGCACACAAGCGGCAGCAGGAGGGGAGGGTGGTCGGAGTCACCTAGTGCAG	9190 fluorescence intensity (a.u.)
TGGATGTATGTGTTTTTTTTATATTTATGTATGTTTATTCCGGAGTCACCTAGTGCAG	9360 fluorescence intensity (a.u.)
TGAAATTTTTACTGTCATGCTTCCTTGTCCCATTACTACACGGAGTCACCTAGTGCAG	8120 fluorescence intensity (a.u.)
ATCGTCTTCCTCGTGAGCGTCCGCGCCCACCCACCTAACCCGGAGTCACCTAGTGCAG	9680 fluorescence intensity (a.u.)
CGGTGTACTTTTTCCTTTCCGATATAAGCTTATTCCTATGCGGAGTCACCTAGTGCAG	9380 fluorescence intensity (a.u.)
GGATGTGGTGTGAGGCGGTGAGGTGGAGGGAACACGGGGACGGAGTCACCTAGTGCAG	9340 fluorescence intensity (a.u.)
TCCGCCCATATCGATATATCTTTATTTCGAGCTACTTTTGCGGAGTCACCTAGTGCAG	8370 fluorescence intensity (a.u.)
ATCATATGATGCTTTGTCGGTGGTGGTGGTTCTTTCAATTCGGAGTCACCTAGTGCAG	14300 fluorescence intensity (a.u.)
GATTCTTCCAATTCCCTGAATCTTGCATGCTTGTAGTTTTCGGAGTCACCTAGTGCAG	11700 fluorescence intensity (a.u.)
TACGTTGGGTGTTATTTGATAGTATTTCCTTGTGTTCTTGCGGAGTCACCTAGTGCAG	8540 fluorescence intensity (a.u.)
AGCCAGTAGATTAGAGGATCAGGTTCCATTCAGAGTGTATCGGAGTCACCTAGTGCAG	8800 fluorescence intensity (a.u.)
GTTGCCAATATAAAAGATGCAAATGTGTTGTTGTCTGGTTCGGAGTCACCTAGTGCAG	9040 fluorescence intensity (a.u.)

Sequence	binding signal
TGTTTGTGATTCAGATACTGCTCTAGTGTGGCTTGCTGCCCGGAGTCACCTAGTGCAG	8240 fluorescence intensity (a.u.)
AACGATTCTTCCTCGCCGACGCCGCCACCCACCCACAACCCGGAGTCACCTAGTGCAG	8060 fluorescence intensity (a.u.)
CAAAAGCACTGGTATACTCCCTTCAACCTTTTCTTTTAAGCGGAGTCACCTAGTGCAG	8400 fluorescence intensity (a.u.)
TGCATCCACTTGCACCATCGCACCCGGTTTTTTACTGTGACGGAGTCACCTAGTGCAG	10500 fluorescence intensity (a.u.)
CGCCCGCTCCGCCGCATGCATGCATCCATACATTAAAACTCGGAGTCACCTAGTGCAG	8050 fluorescence intensity (a.u.)
CCTGCCATGTCATGTTTGTACCTAGATACCAGGTATGACGCGGAGTCACCTAGTGCAG	8960 fluorescence intensity (a.u.)
ACATTTCTGTTATTCCCCGCGGACAAGTCACAACTACTTCCGGAGTCACCTAGTGCAG	9830 fluorescence intensity (a.u.)
TCACCTCGTTTTTCTGTTATGGGTGTGAGTAACCTTGATCCGGAGTCACCTAGTGCAG	9250 fluorescence intensity (a.u.)
GCGTTGGTTTTATGTTATACTCTGCCTTTCCAAATCATTTCGGAGTCACCTAGTGCAG	9600 fluorescence intensity (a.u.)
GATATCCGTGTTCTTCTCTGACCGAATCCGAATCCCGCGTCGGAGTCACCTAGTGCAG	9760 fluorescence intensity (a.u.)
AAATGCAGACACTCATAACACATATACTCAACGCATATATCGGAGTCACCTAGTGCAG	8600 fluorescence intensity (a.u.)
CACATTTTCTTCTTATCTTGTTGCTCACTTGTTCTGTTCTCGGAGTCACCTAGTGCAG	9020 fluorescence intensity (a.u.)
TTTCGCCGGCCGCGGATTGACACCCAAATTTATAGAGCATCGGAGTCACCTAGTGCAG	8510 fluorescence intensity (a.u.)
ACCGCCTTTTTTGCCACCTTTGTAGCGCCGTCTACCATTGCGGAGTCACCTAGTGCAG	10700 fluorescence intensity (a.u.)
CTCGTTTCGTGTGCGCCGCGCGGCTGCTGCTGCTGCTTTCCGGAGTCACCTAGTGCAG	9080 fluorescence intensity (a.u.)
CAAATATATATTTTTACTTTCACTTTTAGTCCCTTGTAGCCGGAGTCACCTAGTGCAG	8700 fluorescence intensity (a.u.)
GTTTCTTGGTCGTGGGGTCGAGGAGGTGGTGGGTGGTGGTCGGAGTCACCTAGTGCAG	14800 fluorescence intensity (a.u.)
AAAAAACACTATTTTTGCAATTAATTTCTCTGCACACTCACGGAGTCACCTAGTGCAG	8590 fluorescence intensity (a.u.)
CATCTGTTTACTTTGTCTTGTTAACTCTCTTGCCACATCACGGAGTCACCTAGTGCAG	11100 fluorescence intensity (a.u.)
TCATCGAGCGAACGCCCGTGGGCCGTTGGCCGTTGACTGCCGGAGTCACCTAGTGCAG	9810 fluorescence intensity (a.u.)
CTCCTCTTTGACCTCGCTATCTATCCATCTACTGCAGTTTCGGAGTCACCTAGTGCAG	11400 fluorescence intensity (a.u.)

4 successive records out of the list so far:
Sequence	binding signal
AAATGCAGACACTCATAACACATATACTCAACGCATATATCGGAGTCACCTAGTGCAG	8600 fluorescence intensity (a.u.)
CACATTTTCTTCTTATCTTGTTGCTCACTTGTTCTGTTCTCGGAGTCACCTAGTGCAG	9020 fluorescence intensity (a.u.)
TTTCGCCGGCCGCGGATTGACACCCAAATTTATAGAGCATCGGAGTCACCTAGTGCAG	8510 fluorescence intensity (a.u.)
ACCGCCTTTTTTGCCACCTTTGTAGCGCCGTCTACCATTGCGGAGTCACCTAGTGCAG	10700 fluorescence intensity (a.u.)
